The record followed here is article PMC9650896.

By UniProt entry, the sequences of proteins in these tests, tags left out.
UniProt Q04206: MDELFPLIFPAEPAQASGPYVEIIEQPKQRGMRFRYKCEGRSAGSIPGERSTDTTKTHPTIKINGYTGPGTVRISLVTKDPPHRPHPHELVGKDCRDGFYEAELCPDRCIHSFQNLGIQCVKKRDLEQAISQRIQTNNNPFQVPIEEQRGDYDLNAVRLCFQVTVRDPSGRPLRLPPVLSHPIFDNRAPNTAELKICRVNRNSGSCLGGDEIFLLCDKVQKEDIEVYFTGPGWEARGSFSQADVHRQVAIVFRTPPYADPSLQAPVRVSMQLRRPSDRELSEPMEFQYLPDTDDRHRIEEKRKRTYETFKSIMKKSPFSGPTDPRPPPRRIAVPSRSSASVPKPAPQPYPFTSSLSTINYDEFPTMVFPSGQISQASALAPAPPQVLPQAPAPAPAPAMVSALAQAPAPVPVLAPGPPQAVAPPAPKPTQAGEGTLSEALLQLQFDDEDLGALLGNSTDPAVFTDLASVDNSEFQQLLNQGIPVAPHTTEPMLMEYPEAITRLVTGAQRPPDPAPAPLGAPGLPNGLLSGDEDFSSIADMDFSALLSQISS
UniProt P46937: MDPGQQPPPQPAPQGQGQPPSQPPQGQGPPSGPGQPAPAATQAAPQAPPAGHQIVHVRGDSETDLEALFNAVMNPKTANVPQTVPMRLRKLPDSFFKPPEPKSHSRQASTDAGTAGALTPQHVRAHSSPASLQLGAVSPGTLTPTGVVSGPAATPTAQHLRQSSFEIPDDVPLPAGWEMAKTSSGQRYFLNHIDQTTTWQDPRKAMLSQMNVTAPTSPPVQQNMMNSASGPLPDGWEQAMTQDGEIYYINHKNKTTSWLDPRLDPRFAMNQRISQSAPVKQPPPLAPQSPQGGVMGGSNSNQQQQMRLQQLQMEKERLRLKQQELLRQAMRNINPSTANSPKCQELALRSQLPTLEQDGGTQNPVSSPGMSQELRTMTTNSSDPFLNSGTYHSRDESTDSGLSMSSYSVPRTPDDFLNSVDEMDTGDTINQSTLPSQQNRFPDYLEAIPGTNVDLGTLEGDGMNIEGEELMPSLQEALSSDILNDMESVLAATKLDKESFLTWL

No constants are given. Whether binding was seen depends on the method and setting. In cells and extracts the contact can be indirect. Some results given as binding are weak or reduced against the parent protein; the word gives no strength.

The assay concerns the target NF-κB p65 (human (endogenous in A549)) (UniProt Q04206). Briefly: co-IP; A549 cells stimulated for 30 min with thrombin (10 U/ml), with or without control siRNA or DCLK1 siRNA for 48 h beforehand; supernatants immunoprecipitated overnight at 4 °C with anti-NF-κB p65 antibody and protein A beads; blotted with anti-YAP and anti-p65.

For the substance “yes-associated protein 1 (YAP) (from UniProt P46937 1-504)”, the binding entry is listed as “binds”.
